Reference: publication PMC4634911
Numbering of substitutions follows the chain as printed. These are yes or no findings as the source states them, for the method shown. Binding seen in cells or lysates may run through a third protein. Some entries that bind do so weakly or less than the wild type. Sequences can lack the tags named with a protein.

By UniProt entry, the sequences of proteins in these tests, tags left out.
UniProt A6NGQ2: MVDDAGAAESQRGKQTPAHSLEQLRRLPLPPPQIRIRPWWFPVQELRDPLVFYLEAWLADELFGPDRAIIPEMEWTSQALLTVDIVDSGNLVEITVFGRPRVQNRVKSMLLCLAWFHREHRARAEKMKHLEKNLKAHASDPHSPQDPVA

Experiments:
[1] = target: T1, Flag-tagged TLE6, wild type (human) (UniProt Q9H808); assay: co-IP; cells expressing Flag-tagged wild-type or S510Y TLE6; lysate on anti-Flag beads, 2 h at 4 °C, pull-down buffer 50 mM HEPES pH 7.5, 150 mM NaCl, 0.1 % Tween 20; immunoblot for OOEP and KDHC3L
T1 sequence: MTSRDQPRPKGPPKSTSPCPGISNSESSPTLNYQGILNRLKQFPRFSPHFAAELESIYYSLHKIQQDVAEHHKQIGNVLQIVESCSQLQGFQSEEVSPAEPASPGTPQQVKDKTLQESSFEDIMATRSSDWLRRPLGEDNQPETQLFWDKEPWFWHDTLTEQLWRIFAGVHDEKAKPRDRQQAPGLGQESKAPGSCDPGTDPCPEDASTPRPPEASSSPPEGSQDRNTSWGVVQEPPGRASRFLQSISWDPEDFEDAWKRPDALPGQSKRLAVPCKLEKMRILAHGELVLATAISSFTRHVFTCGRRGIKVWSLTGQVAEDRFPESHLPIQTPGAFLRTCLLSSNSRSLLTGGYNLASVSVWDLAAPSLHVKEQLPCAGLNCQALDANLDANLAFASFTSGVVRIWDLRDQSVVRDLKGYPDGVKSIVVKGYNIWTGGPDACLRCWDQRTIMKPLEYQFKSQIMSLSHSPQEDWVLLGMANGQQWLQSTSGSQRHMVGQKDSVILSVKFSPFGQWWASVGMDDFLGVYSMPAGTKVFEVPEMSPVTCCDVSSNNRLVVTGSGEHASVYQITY

[2] = target: T2, Flag-tagged TLE6 S510Y (human) (UniProt Q9H808); assay: as above
T2 sequence: T1 sequence with S510Y

Substance: OOEP in the cells transfected with Flag-TLE6 (from UniProt A6NGQ2 1-149)
- binding [1]: binds
- binding [2]: binds
